Data as given in PubChem BioAssay AID1259254 (NCATS, 2017)
Assay: 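Gene knock-downs that lead to re-replication, shown by excess G2 DNA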 (primary screen). System: human HCT116 colorectal cancer cells. Knock-down reagent: single siRNA against human genes. Duration: 3 days. Measurement: 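Imaged Hoechst DNA stain sorts each cell into a cycle phase by DNA amount; per plate, G2 fraction set to 0% for non-targeting and 100% for GMNN siRNA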. Reading the numbers: G2 robust z-score: higher = more G2 cells, more excess DNA replication. Rule for the call: 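Active siRNAs have a G2 robust z of 5 or more median absolute deviations over the median, which in these data means about 38% or higher of GMNN control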.
Here is one part, drawn at random, of about 59,000 deposited reagents. Of all reagents, about 1,550 (2.6%) are marked active. 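G2 share is only a proxy for re-replication; each gene was hit by three separate siRNAs, and active genes were retested.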 A number with no mark means an inactive call. The numbers tell different reagents against one gene apart. Further read-outs or replicates are left out here. Not stated in the record: the amount of reagent.

G2 robust z-score, by target gene and reagent
CHMP4C: #1 -0.838; #2 -0.265; #3 -0.789
SVIP: #1 -0.062; #2 0.27; #3 0.0126
PLEC: #1 0.985; #2 -1.01; #3 5.09 (active)
BICRAL: #1 0.656; #2 0.499; #3 0.278
FSIP2: #1 0.977; #2 1.66; #3 0.397; #4 -0.791; #5 -0.538; #6 -0.382
GOLGA8B: #1 0.565; #2 -0.082; #3 -0.515
KIR3DX1: #1 2.69; #2 -0.95; #3 -0.934
LRRC40: #1 -1.05; #2 0.813; #3 -0.2
RBBP7: #1 0.234; #2 -0.0843; #3 1.91

Laid out differently: 3 of the entries above.
{"target gene": "FSIP2", "reagent": 3, "G2 robust z-score": 0.397}
{"target gene": "FSIP2", "reagent": 4, "G2 robust z-score": -0.791}
{"target gene": "FSIP2", "reagent": 5, "G2 robust z-score": -0.538}

More records follow:
G2 robust z-score, by target gene and reagent
IL20RB: #1 0.636; #2 3.39; #3 2.57
GRB2: #1 -0.605; #2 1.89; #3 -0.762
CR2: #1 0.146; #2 0.182; #3 -0.871
H2AJ: #1 0.394; #2 -0.0838; #3 1.34
OGFOD2: #1 -1.05; #2 5.13 (active); #3 4.06
HOXC11: #1 -0.589; #2 -1.25; #3 -0.873
